Measured data: PubChem BioAssay AID1259424 (University of Nebraska Medical Center, 2018)
Assay: 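Rank knockdowns across the genome by resemblance to the KSR1 depletion profile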 (primary screen). Cell system: human HCT116 colon cancer cells. Reagents: siRNA pool against human genes, 50 nM. Read-out: 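Log2 levels of six mRNAs (branched-DNA multiplex), adjusted by two reference genes and the non-targeting median, then scored against the average KSR1 knockdown pattern as Pearson r and euclidean distance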. Direction: mean correlation with KSR1 profile and KSR1 correlation: higher = expression change more like KSR1 knockdown; mean distance from KSR1 profile: higher = expression change less like KSR1 knockdown.
In all, the deposit lists about 14,000 reagents; shown is an unselected part. 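Higher correlation or smaller distance means closer resemblance to KSR1 loss; control wells, including KSR1 knockdowns, recur on many plates.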 Not given: the time to read-out.

gene symbol,mean correlation with KSR1 profile,mean distance from KSR1 profile,"KSR1 correlation, replicate 1","KSR1 correlation, replicate 2","KSR1 correlation, replicate 3"
MORF4 (mortality factor 4 (pseudogene)),0.229,5.39,0.503,0.143,0.218
RBM42 (RNA binding motif protein 42),0.448,1.42,0.296,0.132,0.352
VSX1 (visual system homeobox 1),-0.094,2.37,0.0872,-0.0649,0.0569
TAF13 (TATA-box binding protein associated factor 13),-0.227,3.73,-0.358,-0.202,-0.101
LCMT1 (leucine carboxyl methyltransferase 1),0.127,2.13,0.037,0.234,0.0816
DDIT4 (DNA damage inducible transcript 4),-0.344,2.29,-0.359,-0.126,-0.551
LGALS2 (galectin 2),0.966,1.3,0.929,0.883,0.643
HEY1,0.586,1.08,0.489,0.687,0.637
CSGALNACT2 (chondroitin sulfate N-acetylgalactosaminyltransferase 2),-0.593,2.23,-0.532,-0.807,-0.486
GNG4 (G protein subunit gamma 4),0.61,2.12,0.454,0.673,0.443
ARHGAP8 (Rho GTPase activating protein 8),0.0124,1.54,-0.378,0.0325,0.484
ELOF1 (elongation factor 1),0.508,3.03,0.498,0.515,0.415
NAT1 (N-acetyltransferase 1),-0.857,2.04,-0.468,-0.75,-0.865
BPTF (bromodomain PHD finger transcription factor),0.336,1.35,0.833,-0.143,0.0601
PAM (peptidylglycine alpha-amidating monooxygenase),-0.0513,1.34,0.112,-0.00557,-0.0271
SPACA9 (sperm acrosome associated 9),-0.25,1.33,-0.331,-0.176,-0.114
"LRRC37A4P (leucine rich repeat containing 37 member A4, pseudogene)",-0.394,1.24,-0.487,-0.378,-0.182
MYH8 (myosin heavy chain 8),-0.57,1.46,-0.532,-0.558,-0.454
"TEF (TEF transcription factor, PAR bZIP family member)",-0.758,2.53,-0.821,-0.644,-0.851
LILRB4 (leukocyte immunoglobulin like receptor B4),-0.178,1.63,-0.0991,-0.297,-0.28
HMGXB4 (HMG-box containing 4),0.625,1.81,0.502,0.678,0.695
BRD2 (bromodomain containing 2),-0.101,2.22,0.129,-0.213,-0.361
CD86 (CD86 molecule),-0.186,1.84,-0.207,-0.0103,-0.45
TRAPPC4 (trafficking protein particle complex subunit 4),-0.492,2.23,-0.54,-0.231,-0.49
H2BC14 (H2B clustered histone 14),0.0254,3.58,0.39,0.0312,-0.243
TAGLN3 (transgelin 3),-0.373,3.55,-0.396,-0.427,-0.491
DNAJC9 (DnaJ heat shock protein family (Hsp40) member C9),0.825,1.67,0.321,0.257,0.566
RGR (retinal G protein coupled receptor),0.026,4.21,0.0447,0.165,0.0154
TNFSF15 (TNF superfamily member 15),0.719,2.57,0.804,0.677,0.634
TOM1L1 (target of myb1 like 1 membrane trafficking protein),0.59,0.712,0.558,0.583,0.412
PPAT (phosphoribosyl pyrophosphate amidotransferase),0.443,1.63,0.428,0.447,0.263
TBC1D10B (TBC1 domain family member 10B),-0.116,2.85,0.222,-0.286,-0.103
MLF1 (myeloid leukemia factor 1),0.509,1.7,0.423,0.373,0.547
NKIRAS2 (NFKB inhibitor interacting Ras like 2),0.0129,2.14,0.0663,0.189,-0.657
IMPACT (impact RWD domain protein),-0.477,1.96,-0.412,-0.702,-0.442
ARID1A (AT-rich interaction domain 1A),-0.176,1.78,0.268,0.0017,-0.258
WDR7 (WD repeat domain 7),0.173,5.79,0.42,0.172,-0.156
RNF11 (ring finger protein 11),0.0278,1.43,-0.217,-0.474,-0.325
ZBED2 (zinc finger BED-type containing 2),0.175,2.75,0.209,0.13,0.22
UBA52 (ubiquitin A-52 residue ribosomal protein fusion product 1),-0.321,2.49,-0.0749,-0.257,-0.341
ERG (ETS transcription factor ERG),-0.328,1.71,-0.259,-0.385,-0.0387
ARHGAP21 (Rho GTPase activating protein 21),-0.37,1.82,-0.596,-0.35,-0.149
PARN (poly(A)-specific ribonuclease),-0.404,2.3,-0.254,-0.309,-0.451
EXO1 (exonuclease 1),0.0406,1.89,-0.0441,-0.0125,0.0951
UGT2B28 (UDP glucuronosyltransferase family 2 member B28),-0.428,2.08,-0.485,-0.453,-0.201
RNF114 (ring finger protein 114),0.273,1.82,0.135,0.0793,0.436
TAMALIN (trafficking regulator and scaffold protein tamalin),0.0143,2.2,0.0164,-0.148,0.311
CSAD (cysteine sulfinic acid decarboxylase),0.0793,3.02,-0.0914,0.158,0.222
CD1A (CD1a molecule),-0.193,2.92,-0.231,-0.218,-0.347
SAP30 (Sin3A associated protein 30),0.149,2.17,0.232,0.375,0.232

Laid out differently: 4 of the entries above
{"gene symbol": "PPAT (phosphoribosyl pyrophosphate amidotransferase)", "mean correlation with KSR1 profile": 0.443, "mean distance from KSR1 profile": 1.63, "KSR1 correlation, replicate 1": 0.428, "KSR1 correlation, replicate 2": 0.447, "KSR1 correlation, replicate 3": 0.263}
{"gene symbol": "TBC1D10B (TBC1 domain family member 10B)", "mean correlation with KSR1 profile": -0.116, "mean distance from KSR1 profile": 2.85, "KSR1 correlation, replicate 1": 0.222, "KSR1 correlation, replicate 2": -0.286, "KSR1 correlation, replicate 3": -0.103}
{"gene symbol": "MLF1 (myeloid leukemia factor 1)", "mean correlation with KSR1 profile": 0.509, "mean distance from KSR1 profile": 1.7, "KSR1 correlation, replicate 1": 0.423, "KSR1 correlation, replicate 2": 0.373, "KSR1 correlation, replicate 3": 0.547}
{"gene symbol": "NKIRAS2 (NFKB inhibitor interacting Ras like 2)", "mean correlation with KSR1 profile": 0.0129, "mean distance from KSR1 profile": 2.14, "KSR1 correlation, replicate 1": 0.0663, "KSR1 correlation, replicate 2": 0.189, "KSR1 correlation, replicate 3": -0.657}
